# Experimental data as given in PubChem BioAssay AID493014 (National Center for Advancing Translational Sciences (NCATS), 2011).
# Some of the results follow. The main result of the screen is listed elsewhere. These columns were measured beside it and carry no call. Compounds called inactive in the main read-out are mostly missing here. Potencies come from curve fits of mixed quality, noted in brackets.
# Assay: qHTS Assay to Find Inhibitors of Chronic Active B-Cell Receptor Signaling
# Settings: ABC-DLBCL IkBa-CBG/CBR reporter, luminescence ratio (green luciferase fused to IkBa over red control in TMD8 lymphoma cells), 4 h
# Summary of the method: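 TMD8 ABC-DLBCL cells carrying doxycycline-inducible green luciferase fused to IkappaBalpha plus unfused red luciferase were exposed to compounds (up to 46 uM) for 4 hrs at 37C. Activity came from the overlap-corrected green/red luminescence ratio.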
# [1] = measured here: CBR red luminescence, cell number
# [2] = measured here: IkBa-CBG green luminescence
compound,measurement,setting,value
Cc1c(C(=O)Nc2ccc3c(c2)OCO3)oc2ccccc12,AC50,[1],"15.8 µM [falling, partial curve, poor fit]"
COc1cc(/C=N/NC(=S)NCc2ccco2)cc(OC)c1OC,AC50,[1],"7.31 µM [falling, partial curve, poor fit]"
CCC(C)(C(=O)NC1CCCCC1)N(Cc1cccs1)C(=O)Cc1cccs1 (stereo unspecified),AC50,[1],"7.31 µM [falling, partial curve, poor fit]"
CCc1nnc(NS(=O)(=O)c2ccc(N/C=C\C(=O)c3ccc4ccccc4c3)cc2)s1,AC50,[2],"25.9 µM [rising, single point]"
c1ccc2c(c1)nc1n2CCS1,AC50,[1],"29.1 µM [rising, partial curve, poor fit]"
Cc1cc(C)nc(NS(=O)(=O)c2ccc(NS(=O)(=O)c3ccccc3)cc2)n1,AC50,[1],"3.66 µM [rising, single point]"
O=C(NCCN1CCN(C(=O)c2cccc(Br)c2)CC1)C(=O)Nc1ccc(Br)cc1,AC50,[1],"6.31 µM [falling, partial curve, poor fit]"
CCOc1ccc(C(C(=O)NCC2CCCO2)N(C(=O)c2snc(C(N)=O)c2N)c2ccc3c(c2)OCCO3)cc1 (stereo unspecified),AC50,[1],"14.1 µM [rising, partial curve, poor fit]"
CC(C)(C)c1cccc(OCCCSc2ncccn2)c1,AC50,[1],"10 µM [rising, partial curve, poor fit]"
COC(=O)c1cccc(NC(=O)CSc2nc3cccnc3n2C)c1,AC50,[1],"11.2 µM [falling, single point]"
CN1CCN(C2=NC(=O)/C(=C/c3cn[nH]c3-c3ccccc3)S2)CC1,AC50,[1],"35.5 µM [falling, single point]"
CC(C)OC(=O)CSc1nnc(CNc2ccc(Cl)cc2)n1Cc1ccccc1,AC50,[1],"9.2 µM [falling, partial curve, poor fit]"
same,AC50,[2],"25.9 µM [rising, partial curve, poor fit]"
Cc1cccc(NC(=O)/C=C/c2ccc3c(c2)OCO3)n1,AC50,[1],"6.51 µM [falling, partial curve]"
O=C(O)CCc1nc(-c2ccccc2)no1,AC50,[1],"2.82 µM [rising, full curve]"
COc1ccccc1Nc1nc(NCc2ccco2)nc(N)c1[N+](=O)[O-],AC50,[1],"35.5 µM [rising, single point]"
Cc1c(C(=O)O)cccc1-c1ccc(/C=N/n2cnnc2)o1,AC50,[1],"17.8 µM [rising, partial curve, poor fit]"
CC1CN=C(NC(=O)c2cccc([N+](=O)[O-])c2)S1 (stereo unspecified),AC50,[1],"0.355 µM [rising, partial curve, poor fit]"
COP(C)(=O)c1c(C)nn(-c2ccccc2)c1C (stereo unspecified),AC50,[1],"4.11 µM [rising, partial curve, poor fit]"
O=C(COc1ccccc1)N/N=C/c1ccc([N+](=O)[O-])o1,AC50,[1],"6.51 µM [rising, single point]"
COC(=O)C1=C(CSc2nc3ccccc3o2)NC(=O)NC1c1cc(C)ccc1C (stereo unspecified),AC50,[1],"18.4 µM [falling, partial curve, poor fit]"
O=C(/C=C/Sc1ccccc1)c1ccccc1,AC50,[1],"11.2 µM [falling, partial curve, poor fit]"
same,AC50,[2],"35.5 µM [rising, single point]"
O=C(OCc1cccc([N+](=O)[O-])c1)c1cccnc1Cl,AC50,[1],"3.16 µM [rising, full curve, poor fit]"
CCN(CC)c1ccc(NC(=O)COc2ccccc2C#N)cc1S(=O)(=O)Nc1ccc(OC)cc1,AC50,[1],"0.461 µM [falling, full curve, poor fit]"
COc1cc2c(cc1NC(=O)CN(C)Cc1cccc(OC)c1OC)oc1ccccc12,AC50,[2],"20.6 µM [rising, single point]"
Nc1c(C(=O)N/N=C/c2ccccc2)cnn1-c1ccccc1,AC50,[1],"31.6 µM [falling, single point]"
COc1ccc(N/N=C(/C(C)=O)N2CCCc3ccccc32)cc1,AC50,[1],"0.1 µM [falling, full curve, poor fit]"
CC(=O)c1c(C)[nH]c(C(=O)OCc2c(F)cccc2Cl)c1C,AC50,[1],"35.5 µM [rising, single point]"
CNC(=O)N/N=C(\N)c1ccccn1,AC50,[1],"15.8 µM [falling, partial curve, poor fit]"
NS(=O)(=O)c1ccc(CNC(=O)c2cccc(Oc3ccccc3)c2)cc1,AC50,[1],"35.5 µM [falling, single point]"
COc1ccc(C(CNC(=O)c2cccn2C)N2CCOCC2)cc1 (stereo unspecified),AC50,[1],"29.1 µM [rising, single point]"
CN(C)/C=C1\Oc2ccc3ccccc3c2C1=O,AC50,[1],"35.5 µM [falling, single point]"
CC(=O)Oc1ccc(C(=O)Nc2cc(NC(=O)c3ccc(OC(C)=O)cc3)cc(C(=O)NC(C)(C)C)c2)cc1,AC50,[1],"18.4 µM [falling, single point]"
CCOC(=O)c1c(N2C(=O)C3C4C=CC(C4)C3C2=O)sc2c1CCC(C)C2 (stereo unspecified),AC50,[1],"0.184 µM [falling, full curve, poor fit]"
CCN(CC)c1ccc(/C=N/NC(=O)Cc2ccc(OC)c(OC)c2)cc1,AC50,[2],"11.2 µM [falling, partial curve, poor fit]"
COc1ccc(NC(=O)c2cccc(N3C(=O)C4C5C=CC(C5)C4C3=O)c2)c(OC)c1 (stereo unspecified),AC50,[1],"5.01 µM [falling, partial curve]"
Cc1ccc2sc(-c3ccc(NC(=O)CCN4C(=O)c5ccccc5C4=O)cc3)nc2c1,AC50,[1],"0.517 µM [rising, full curve, poor fit]"
Cc1csc(NC(=O)CSc2ccc(-c3ccccc3)nn2)n1,AC50,[1],"3.98 µM [falling, single point]"
C[C@H]1CN([C@@H](C)CO)C(=O)Cc2cc(NC(=O)C3CC3)ccc2O[C@H]1CN(C)Cc1ccc(C(=O)O)cc1,AC50,[1],"7.31 µM [rising, partial curve]"
CCS(=O)(=O)Nc1ccc2c(c1)N(C(C)=O)c1ccccc1CC2,AC50,[1],"29.1 µM [falling, single point]"

# Reprinted from the listing for reference:
compound,measurement,setting,value
CN1CCN(C2=NC(=O)/C(=C/c3cn[nH]c3-c3ccccc3)S2)CC1,AC50,[1],"35.5 µM [falling, single point]"
CC(C)OC(=O)CSc1nnc(CNc2ccc(Cl)cc2)n1Cc1ccccc1,AC50,[1],"9.2 µM [falling, partial curve, poor fit]"
same,AC50,[2],"25.9 µM [rising, partial curve, poor fit]"
